Results are given in words; binding and its absence hold for the method and conditions named. Binding seen in cells or lysates may run through a third protein. Binding can be weak; no strength is given.
Target: chicken ZP4 ZP-N1 domain, 6His-tagged (chicken)
Test: pull-down; conditioned medium of cells co-expressing the 6His- and Myc-tagged forms, Ni-NTA beads, 20 mM Na-HEPES pH 7.8, 100 mM NaCl, 10 mM imidazole, 1 h at RT; PNGase F, immunoblot with anti-5His and anti-Myc

chicken ZP4 ZP-N1 domain, Myc-tagged (from UniProt A0A8V0ZLW5) (domain or fragment)
binding: binds

— PMC6626044, “Molecular basis of egg coat cross-linking sheds light on ZP1-associated female infertility” (Nature Communications, 2019)
